The assay is described as follows: qHTS Assay for Lipid Storage Modulators in Drosophila S3 Cells.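 On cell number change: cells counted by Cell Tracker Red CMTPX staining in the red channel.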 The note with it: BODIPY lipid droplet fluorescence, 18-24 h; for cell number change: measured here: cell count max response, cells fed with added oleic acid. The gist of the method:
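Drosophila S3 cells got compounds at several concentrations plus oleic acid (400 uM solution). Laser-scanning cytometry with 488 nm excitation read lipid droplets at 500-530 nm and cells at 575-640 nm. Percent activity was relative to 20 uM Triacsin C.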
(In general: In qHTS, concentration-response curves come from the screen itself.)

The mark [1] stands for this setting: measured here: cell number channel AC50, cells fed with added oleic acid.
[2] abbreviates: measured here: lipid fluorescence (Fed channel) AC50, cells fed with added oleic acid.

Here are results for 58 molecules from PubChem BioAssay AID2685 (National Center for Advancing Translational Sciences (NCATS), 2010).

What is called AC50 is the concentration at which the activity in the assay is half-maximal.

SMILES strings stand for the structures. The list shows a part of the results. Further columns of the screen follow, without active or inactive calls. Most of these compounds were active or inconclusive in the main read-out, so they are no random draw. The note in brackets gives the kind of curve behind each potency; many fits are weak.

For `CCN1C(=O)[C@H]2[C@@H](c3ccc(C)cc3)N3C(=O)N(c4ccc(OC)cc4)C(=O)[C@@]3(C)[C@H]2C1=O`, the cell number change is -5.83%. In the case of `COc1cc(CNc2ccc3[nH]c(=O)[nH]c3c2)cc(Br)c1OCc1ccccc1F`, the cell number change was -37.7%. Besides, under setting [1], the AC50 is 3.66 µM [falling, full curve, poor fit]. Also, under setting [2], the AC50 was 11.6 µM [falling, partial curve]. For `O=C1N=C(N2CCOCC2)S/C1=C/c1ccc(-c2ccccc2Cl)o1`, the AC50 reads like this: under setting [1], 1.46 µM [rising, partial curve]; under setting [2], 3.66 µM [rising, single point]. Take `Cc1cc(NC(=O)C(C)SCC(=O)OCc2ccc(Cl)cc2Cl)no1` (stereo unspecified): the cell number change was -9.01%. Moreover, the AC50 under setting [2] was 7.31 µM [rising, partial curve, poor fit]. Regarding `COc1cc2c(cc1NC(=O)C(C)OC(=O)C1CC(=O)N(Cc3ccco3)C1)oc1ccccc12` (stereo unspecified), the cell number change was -0.4%. In addition, under setting [2], the AC50 is 8.2 µM [falling, partial curve].

For `Cc1ccc(C)c(NC(=O)c2nc(-c3ccccc3)n(-c3ccccc3)n2)c1`, the cell number change is -9.57%. Besides, under setting [1], the AC50 is 0.146 µM [rising, full curve]. Also, the AC50 under setting [2] was 0.259 µM [rising, full curve]. Turning to `CC1CCCCN1C(=O)c1ccccc1NC(=O)c1ccco1` (stereo unspecified), the cell number change amounted to 11.4%. Besides, under setting [2], the AC50 was 23.1 µM [falling, partial curve]. `COc1ccccc1C(=O)COC(=O)Cn1nc(C)c([N+](=O)[O-])c1C`: the cell number change is -13.2%. For the same molecule, the AC50 under setting [1] is 1.84 µM [falling, partial curve]. Take `Oc1ccc(Cl)cc1CNc1nccs1`: the cell number change was 14.4%. Regarding `CCNc1nc(-c2ccc(Cl)cc2)cs1`, the cell number change was -32.6%. Also, under setting [1], the AC50 was 29.1 µM [falling, single point]. Further, under setting [2], the AC50 is 23.1 µM [falling, single point]. As to `CCN(CC(=O)Nc1ccc(NC(C)=O)cc1)C(=O)c1ccc(N2CCC(C)CC2)c([N+](=O)[O-])c1`, the cell number change amounted to 5.7%. Moreover, the AC50 under setting [1] was 0.517 µM [falling, full curve]. Besides, the AC50 under setting [2] is 0.517 µM [falling, full curve].

Consider `COCCn1c(COc2ccccc2)nnc1SCC(N)=O`, for which the cell number change was -0.862%. For the same molecule, under setting [2], the AC50 was 20.6 µM [falling, partial curve]. As for `CC1=C(C(=O)NCc2ccc(Cl)cc2)C2(CCC(C)CC2)OC1=O` (stereo unspecified), the AC50 is 0.461 µM [rising, partial curve, poor fit] under setting [1] and 0.517 µM [rising, single point] under setting [2]. With `COc1ccc(/C=C/C(=O)c2ccncc2)c2ccccc12`, the cell number change is -15.5%. For the same molecule, under setting [2], the AC50 is 29.1 µM [falling, single point]. Take `Cc1cc(NC(=O)CSc2nc3ccccc3c(=O)n2C(C)c2ccccc2)no1` (stereo unspecified): the AC50 is, setting by setting: under setting [1], 2.91 µM [rising, single point]; under setting [2], 3.26 µM [rising, partial curve]. For `COC(=O)c1ccc(CNC(=O)CCNC(=O)c2ccco2)cc1`, the cell number change is -14%. Further, the AC50 under setting [1] is 0.164 µM [falling, full curve, poor fit]. Besides, the AC50 under setting [2] was 1.46 µM [falling, partial curve, poor fit]. On to `O=C(OC1CCOC1=O)c1cc(-c2ccc(Cl)cc2)nc2ccccc12` (stereo unspecified), for which the cell number change is -9.66%. For `Cc1ccc(-c2nnc(SCC#CCOC(=O)c3cccs3)o2)cc1`, the cell number change is 46.5%. The AC50 under setting [1] was 8.2 µM [rising, partial curve, poor fit]. As for `COc1cccc([C@@H]2Oc3ccc(OC)cc3C(=O)[C@H]2O)c1`, the cell number change is -30.2%. In addition, the AC50 under setting [1] is 0.206 µM [falling, full curve, poor fit]. Under setting [2], the AC50 was 0.00517 µM [falling, full curve, poor fit]. For the molecule `Cc1ccc(S(=O)(=O)NCC(=O)OCc2cc(=O)oc3cc(C)ccc23)cc1`, the cell number change was -28%. In addition, the AC50 under setting [2] is 23.1 µM [falling, single point].

In the case of `CC(=O)Nc1nc(CC(=O)c2ccccc2)cs1`, the AC50 under setting [1] is 2.91 µM [rising, partial curve] and the AC50 under setting [2] was 2.06 µM [rising, partial curve]. Turning to `O=C(COC(=O)/C=C/c1ccccc1)Nc1cccc(Oc2ccccc2)c1`, the cell number change was -18.8%. The AC50 under setting [2] was 0.366 µM [falling, full curve, poor fit]. In the case of `O=C(Nc1ccc(Cl)cc1Cl)NC1CCCC1`, the cell number change was -14.5%. For the molecule `CC(=O)N1CC2(C)CN(C(C)=O)CC(C)(C1)C2=O`, the AC50 is 6.51 µM [falling, single point] under setting [1] and 7.31 µM [falling, partial curve] under setting [2]. With `CCCc1cc(=O)oc2cc(C)cc(OC(C)C(=O)NCc3ccccn3)c12` (stereo unspecified), the cell number change turned out to be 18.2%. Also, the AC50 under setting [2] was 16.4 µM [falling, single point]. In the case of `Cc1ccc2c(c1)C1CN(C)CCC1N2C(=S)Nc1ccc(OC(F)F)cc1` (stereo unspecified), the cell number change is -27.7%. In addition, the AC50 under setting [2] is 2.06 µM [rising, partial curve]. On to `CC(C)CCNC(=O)CSc1nnc(-c2ccc(S(=O)(=O)N3CCCC3)cc2)n1C`, for which the AC50 under setting [1] is 0.651 µM [rising, single point]. For the molecule `O=C(CSc1nc(-c2ccc(F)cc2)cc(C(F)(F)F)n1)NCc1cccs1`, the cell number change amounted to 47.4%. Moreover, the concentration at half-maximal activity (AC50) under setting [1] was 7.31 µM [rising, partial curve]. Moreover, the AC50 under setting [2] was 1.64 µM [rising, partial curve].

For `CN(C)S(=O)(=O)c1cc(C(=O)O)c(NC2CCCCC2)cc1Cl`, the cell number change amounted to 5.55%. Further, under setting [2], the concentration at half-maximal activity (AC50) was 14.6 µM [falling, partial curve].

Take `CC(C(=O)O)N1C(=O)C2C3CC(C2C1=O)C1C(c2ccccc2)c2sc(=O)[nH]c2SC31` (stereo unspecified): the cell number change was -2.67%. The AC50 under setting [1] is 6.51 µM [falling, single point].

Turning to `CCOC(=O)C1(C)NC(c2cccs2)C2C(=O)N(c3ccc(C)cc3)C(=O)C21` (stereo unspecified), the cell number change was 2.65%.

With `NC(=O)c1ccccc1NC(=O)COc1ccc(Cl)cc1`, the cell number change turned out to be 24.6%. The AC50 under setting [2] was 0.92 µM [rising, partial curve, poor fit]. For the molecule `COCc1cc(C)nc(N/N=C/c2ccc(-c3ccc(Cl)cc3[N+](=O)[O-])o2)c1C#N`, under setting [2], the AC50 was 20.6 µM [rising, single point].

For the molecule `NNC(=O)c1sc(-c2ccccc2)cc1N`, the cell number change was determined as 8.2%. Also, the half-maximal activity concentration (AC50) under setting [2] is 29.1 µM [rising, single point]. In the case of `Cc1cccc(N(C(=O)c2snc(C(N)=O)c2N)C(C(=O)NCC2CCCO2)c2ccc(N(C)C)cc2)c1` (stereo unspecified), under setting [2], the AC50 was 1.84 µM [rising, single point]. For the molecule `CCCCC(CC(C)O)c1n[nH]c(=S)n1-c1ccccc1` (stereo unspecified), the cell number change was found to be 1.76%. Moreover, the AC50 under setting [2] was 1.3 µM [rising, single point].

With `CCn1c(=O)n(CC)c2cc(S(=O)(=O)N3CCOCC3)ccc21`, the cell number change amounted to 2.25%. Regarding `Cc1ccc(NC(=O)NC2CCCCC2)cc1S(=O)(=O)N1CCOCC1`, the cell number change stood at 47.8%. Besides, the AC50 under setting [1] is 9.2 µM [rising, partial curve, poor fit]. As for `Cc1ccc(OCC(=O)N2CCc3ccccc3C2)c(Br)c1`, the cell number change was 13.5%. Besides, the AC50 under setting [2] is 0.58 µM [falling, single point]. Regarding `CC(=O)N1CCc2cc(S(=O)(=O)NC(CC(C)C)C(=O)Nc3cc(C)ccn3)ccc21` (stereo unspecified), the cell number change was found to be 14.2%.

For `Cc1cc(S(=O)(=O)NC2CCCCC2)c(C)s1`, the cell number change is -35.3%. Under setting [1], the AC50 is 25.9 µM [falling, partial curve, poor fit]. The AC50 under setting [2] is 25.9 µM [falling, partial curve, poor fit].

Turning to `CCOC(=O)c1ccc(-c2ccc(/C=N/NC(=O)CN(c3ccccc3Cl)S(C)(=O)=O)o2)cc1`, the cell number change was -13.8%. In addition, under setting [2], the AC50 is 18.4 µM [falling, single point].

For `O=C1c2cccnc2C(Nc2ccccc2)N1Cc1ccco1` (stereo unspecified), the AC50 under setting [2] was 0.731 µM [rising, single point]. Consider `N#CCn1c(CN2CCCC2)nc2ccccc2c1=O`, for which the cell number change is 23.5%. Consider `CN1CCN(c2nc(Nc3cccc(C(F)(F)F)c3)nc(N3CCOCC3)n2)CC1`, for which the cell number change was -32.1%. In addition, the AC50 under setting [1] is 29.1 µM [falling, single point]. Under setting [2], the AC50 is 2.91 µM [rising, single point]. On to `CCOc1ccc(-n2c(=O)c3c4c(sc3n(CC(=O)NCc3ccco3)c2=O)CCC4)cc1`, for which the cell number change turned out to be 6.67%. For the same molecule, the concentration at half-maximal activity (AC50) under setting [2] is 0.517 µM [rising, single point]. As to `S=C(NCc1ccco1)N1CCN(c2cccc(Cl)c2)CC1`, the cell number change is -11.9%. The AC50 under setting [2] is 18.4 µM [falling, partial curve, poor fit].

On to `CCCSc1nc(O)c(C2OC(=O)c3c2ccc(OC)c3OC)c(=O)n1C` (stereo unspecified), for which the cell number change is -19.8%. The AC50 under setting [2] was 4.61 µM [falling, full curve, poor fit].

For the molecule `COc1ccccc1N1CCN(C(=O)C2CCN(S(=O)(=O)c3ccc(F)cc3)CC2)CC1`, the cell number change is -16.3%. Moreover, under setting [2], the AC50 was 29.1 µM [rising, single point].

As for `C/C(=N\NC(=S)NCc1ccccc1)c1ccc(C(C)(C)C)cc1`, the cell number change is 35.6%. The AC50 under setting [1] was 6.51 µM [rising, partial curve, poor fit]. `CC(C(=O)N(C)C1CCCCC1)N1CCC(C(N)=O)CC1` (stereo unspecified): the cell number change was 22.7%. The AC50 under setting [2] was 0.231 µM [rising, partial curve, poor fit].

With `CCC1(CC)Cc2ccccc2-c2nc3ccccc3c(=O)n21`, the AC50 under setting [2] is 32.6 µM [rising, single point].

In the case of `CCCN1CCN(C(=O)c2cn(CC(C)C)c(=O)c3cc(OC)c(OC)cc23)CC1`, the cell number change was -18.1%. In the case of `COc1cc2cc(C(=O)N3CCc4ccccc4C3)[nH]c2cc1OC`, the cell number change came to 18.7%. The AC50 under setting [2] is 14.6 µM [rising, partial curve].

Regarding `OCCC1CN(Cc2nc3c(s2)CCCC3)CCN1CCc1ccccc1` (stereo unspecified), the cell number change was determined as 19.9%. As for `O=C(Nc1ccsc1C(=O)N1CCCCCC1)c1ccccc1`, the cell number change amounted to 23.7%. Also, the AC50 under setting [2] is 6.51 µM [rising, single point]. In the case of `N=c1ccn(Cc2ccc(Cl)c(Cl)c2)cc1`, the cell number change was -43.5%. Further, the AC50 under setting [1] is 29.1 µM [falling, single point]. Further, the AC50 under setting [2] is 14.6 µM [falling, partial curve]. With `COc1cc(C(=O)OCCc2cc3ccccc3c(=O)o2)cc(OC)c1OC`, the cell number change was 13.6%. Further, under setting [2], the AC50 is 0.461 µM [rising, partial curve].
